Measurements published in patent publication US5919694A, “Mutant phosphoenolpyruvate carboxylase, its gene, and production method of amino acid” (Ajinomoto Co., Inc., priority 1993, dated 1999).
At least one compound was matched to its structure with a doubt left.

System: Escherichia coli HB101
Assay: Growth inhibition of Escherichia coli HB101 by aspartic acid analog compounds and recovery by additives
Assay type: cell-based
Details: E. coli HB101 in M9 medium, absorbance at 660 nm; FIGS. 1-3
Description: It is proposed, as a general structure of an inhibitor of phosphoenolpyruvate carboxylase, that a C4 dicarboxylic acid structure is essentially provided. From such a viewpoint, various compounds were subjected to screening by the present inventors. Escherichia coli HB101 was cultivated in an LB medium, and transferred to M9 media (containing 20 μg/ml of thiamine and 3 μg/ml of each of Leu and Pro) containing any one of DL-2-amino-4-phosphonobutyric acid, bromosuccinic acid, meso-2,3-dibromosuccinic acid, 2,2-difluorosuccinic acid, 3-bromopyruvic acid, α-ketobutyric acid, α-ketoadipinic acid DL-threo-β-hydroxyaspartic acids L-aspartic acid β-metyl ester α-metyl-DL-aspartic acid, 2,3-diaminosuccinic acid or aspartic acid-β-hydrazide, and absorbance of the medium was measured at 660 nm with the passage of time, thereby growth was monitored.
Further, when these compounds were present at their growth inhibitory concentrations, it was investigated whether or not the inhibition was recovered by addition of nucleic acids (each of uridine, adenosine: 10 mg/dl), glutamic acid or amino acids of the aspartic acid family (Asp: 0.025%, each of Met, Thr, Lys: 0.1%).
Further, growth recovery of Escherichia coli, in the case of addition of the aforementioned inhibition recovering substances alone or as a mixture of 2 species or 3 species, is shown in FIGS. 4-6. […]

Q: With `O=C(O)C(=O)CBr` [3-bromopyruvate] as the compound, how does the “growth inhibition of Escherichia coli” value read?
A: The value was “growth inhibition”.
